Results deposited as PubChem BioAssay AID1224830 (NIAID, 2016).

- Screen: 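Regulators of TLR4 signalling towards TNF-alpha in macrophage-like cells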 (primary screen)
- Cell system: human THP-1 monocytic leukaemia cells, TNF dual-luciferase reporter clone, PMA-differentiated to macrophage-like cells
- Reagents: siRNA pool against human genes, 50 nM
- Time to read-out: LPS for 4 h, given about 3 days after siRNA transfection
- Treatment: bacterial LPS (TLR4 ligand), 10 ng/ml
- Measured: 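TNF firefly reporter luminescence divided by renilla, normalised to the plate median, then turned into a robust z-score for each replicate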
- Direction: TNF reporter robust z-score: higher = stronger TNF reporter response to LPS
- Active means: 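Each well counts as active if its z-score is over 2.8 or under -1.5; controls are left without a call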
The deposit covers about 18,000 reagents; shown is an unselected part. About 2,900 of them (16%) count as active. 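Calls are made per well; low scores hint the gene aids the LPS response, high scores that it dampens it.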 Entries without a mark were called inactive. Repeated entries: four replicate wells of each siRNA pool.

no.	Target gene	TNF reporter robust z-score
1	RPP25	-1.82 (active)
2	RPP25	-1.39
3	RPP25	-1.37
4	RPP25	-1.32
5	NRG4	-0.72
6	NRG4	-0.94
7	NRG4	-1.2
8	NRG4	-1.05
9	FBXO45	2.14
10	FBXO45	0.5
11	FBXO45	0.82
12	FBXO45	1.46
13	FANCL	-0.68
14	FANCL	0.07
15	FANCL	0.47
16	FANCL	0.26
17	ZNF711	-1.35
18	ZNF711	-1.43
19	ZNF711	-1.16
20	ZNF711	-1.23
21	PRIM2	-0.12
22	PRIM2	-0.4
23	PRIM2	2.36
24	PRIM2	-0.38
25	COL20A1	-1.24
26	COL20A1	-1.58 (active)
27	COL20A1	-1.75 (active)
28	COL20A1	-1.52 (active)
29	SUN3	1.4
30	SUN3	2.49
31	SUN3	1.6
32	SUN3	4.01 (active)
33	SLAIN1	1.47
34	SLAIN1	1.12
35	SLAIN1	1.22
36	SLAIN1	2.15
37	SPN	-1.38
38	SPN	-0.6
39	SPN	-0.5
40	SPN	-0.22
41	BLZF1	0.63
42	BLZF1	-0.6
43	BLZF1	1.27
44	BLZF1	1.15
45	INO80C	-0.41
46	INO80C	0.23
47	INO80C	-0.75
48	INO80C	1.56
49	CASP8	-0.54
50	CASP8	-0.73
51	CASP8	-0.36
52	CASP8	-0.68
53	IGF2BP2	-0.51
54	IGF2BP2	0.1
55	IGF2BP2	0.01
56	IGF2BP2	0.03
57	POLR2L	0.42
58	POLR2L	-1.05
59	POLR2L	-0.13
60	ELP2	1.71
61	ELP2	1.37
62	ELP2	1
63	ELP2	0.73
64	PDCD1	1.67
65	PDCD1	1.91
66	PDCD1	0.77
67	PDCD1	1.28
68	MTREX	2.43
69	MTREX	1.7
70	MTREX	0.89
71	MTREX	1.81
72	SH2D3C	-0.56
73	SH2D3C	0.67
74	SH2D3C	0.51
75	SH2D3C	0.62
76	CELF4	-0.22
77	CELF4	0.59
78	CELF4	0.69
79	CELF4	1.06
80	SLC35B1	-0.4
81	SLC35B1	-0.43
82	SLC35B1	0.19
83	SLC35B1	1.37
84	TAF1B	0.18
85	TAF1B	1.44
86	TAF1B	0.1
87	TAF1B	0.82
88	INSM1	-1.24
89	INSM1	-0.19
90	INSM1	-0.31
91	INSM1	-0.4
92	NPRL3	-0.37
93	NPRL3	0.38
94	NPRL3	-0.61
95	NPRL3	1.16
96	COXFA4	0.33
97	COXFA4	2.8 (active)
98	COXFA4	0.67
99	COXFA4	0.19
100	PSD3	0.59
101	PSD3	2.08
102	PSD3	0.17
103	PSD3	0.75
104	RRP7A	0.12
105	RRP7A	-0.24
106	RRP7A	-0.48
107	RRP7A	-0.27
108	TNIP2	0.5
109	TNIP2	-0.53
110	TNIP2	-0.8
111	TNIP2	0.8
112	TUBA1C	-0.54
113	TUBA1C	-0.83
114	TUBA1C	-1.09
115	TUBA1C	-0.4
116	MEGF9	0.49
117	MEGF9	1.12
118	MEGF9	-0.41
119	MEGF9	0.6
120	GRIN2D	-1.55 (active)
121	GRIN2D	-0.46
122	GRIN2D	-0.34
123	GRIN2D	-0.53
124	RELT	3.77 (active)
125	RELT	2.65
126	RELT	4.31 (active)
127	RELT	2.78
128	MSMP	-0.88
129	MSMP	0.25
130	MSMP	-1.14
131	MSMP	-0.74
132	HSDL1	-0.48
133	HSDL1	-0.65
134	HSDL1	-0.78
135	HSDL1	0.2
136	ANXA7	2.21
137	ANXA7	0.7
138	ANXA7	1.11
139	ANXA7	-0.55
140	HS3ST3B1	-0.82
141	HS3ST3B1	-0.28
142	HS3ST3B1	-0.42
143	HS3ST3B1	-0.98

Entries above called active, once more:
Target gene	TNF reporter robust z-score
RPP25	-1.82 (active)
COL20A1	-1.58 (active)
COL20A1	-1.75 (active)
COL20A1	-1.52 (active)
SUN3	4.01 (active)
COXFA4	2.8 (active)
GRIN2D	-1.55 (active)
RELT	3.77 (active)
RELT	4.31 (active)
